Results of single-concentration screens

Protein sequences, listed by entry. Tags and fused reporters are not part of them.
UniProt P9WFT3, whole entry: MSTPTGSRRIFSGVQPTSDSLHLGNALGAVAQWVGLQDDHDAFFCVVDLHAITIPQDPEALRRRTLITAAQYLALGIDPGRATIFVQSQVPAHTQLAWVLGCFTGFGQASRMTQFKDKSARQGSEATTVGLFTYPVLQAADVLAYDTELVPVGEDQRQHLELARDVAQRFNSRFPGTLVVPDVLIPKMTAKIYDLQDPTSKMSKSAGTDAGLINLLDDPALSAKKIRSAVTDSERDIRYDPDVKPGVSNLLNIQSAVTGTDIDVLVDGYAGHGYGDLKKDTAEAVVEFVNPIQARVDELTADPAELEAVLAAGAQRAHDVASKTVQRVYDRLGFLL
UniProt P9WPC5, whole entry: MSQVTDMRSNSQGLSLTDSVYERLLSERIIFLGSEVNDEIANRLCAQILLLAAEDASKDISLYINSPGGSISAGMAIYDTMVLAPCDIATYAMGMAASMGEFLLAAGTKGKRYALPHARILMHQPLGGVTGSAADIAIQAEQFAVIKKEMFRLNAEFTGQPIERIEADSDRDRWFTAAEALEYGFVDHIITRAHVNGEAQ
UniProt P9WPC3, whole entry partner: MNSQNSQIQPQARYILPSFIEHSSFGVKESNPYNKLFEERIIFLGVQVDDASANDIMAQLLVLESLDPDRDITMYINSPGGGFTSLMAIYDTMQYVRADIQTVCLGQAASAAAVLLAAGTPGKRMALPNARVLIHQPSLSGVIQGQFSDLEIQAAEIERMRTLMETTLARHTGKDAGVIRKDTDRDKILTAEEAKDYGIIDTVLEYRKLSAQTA
UniProt P9WNZ1, whole entry: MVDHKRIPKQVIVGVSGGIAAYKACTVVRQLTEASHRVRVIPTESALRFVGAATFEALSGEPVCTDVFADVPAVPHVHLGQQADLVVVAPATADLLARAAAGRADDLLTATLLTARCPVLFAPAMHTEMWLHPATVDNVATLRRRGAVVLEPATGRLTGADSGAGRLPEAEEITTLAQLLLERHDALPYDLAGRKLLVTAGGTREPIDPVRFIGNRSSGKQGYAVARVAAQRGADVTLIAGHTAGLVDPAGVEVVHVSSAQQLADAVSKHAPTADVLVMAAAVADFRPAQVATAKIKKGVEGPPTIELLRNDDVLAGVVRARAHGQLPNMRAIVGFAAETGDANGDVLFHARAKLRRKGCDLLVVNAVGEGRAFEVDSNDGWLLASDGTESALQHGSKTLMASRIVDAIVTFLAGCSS
UniProt I6X8D2, whole entry: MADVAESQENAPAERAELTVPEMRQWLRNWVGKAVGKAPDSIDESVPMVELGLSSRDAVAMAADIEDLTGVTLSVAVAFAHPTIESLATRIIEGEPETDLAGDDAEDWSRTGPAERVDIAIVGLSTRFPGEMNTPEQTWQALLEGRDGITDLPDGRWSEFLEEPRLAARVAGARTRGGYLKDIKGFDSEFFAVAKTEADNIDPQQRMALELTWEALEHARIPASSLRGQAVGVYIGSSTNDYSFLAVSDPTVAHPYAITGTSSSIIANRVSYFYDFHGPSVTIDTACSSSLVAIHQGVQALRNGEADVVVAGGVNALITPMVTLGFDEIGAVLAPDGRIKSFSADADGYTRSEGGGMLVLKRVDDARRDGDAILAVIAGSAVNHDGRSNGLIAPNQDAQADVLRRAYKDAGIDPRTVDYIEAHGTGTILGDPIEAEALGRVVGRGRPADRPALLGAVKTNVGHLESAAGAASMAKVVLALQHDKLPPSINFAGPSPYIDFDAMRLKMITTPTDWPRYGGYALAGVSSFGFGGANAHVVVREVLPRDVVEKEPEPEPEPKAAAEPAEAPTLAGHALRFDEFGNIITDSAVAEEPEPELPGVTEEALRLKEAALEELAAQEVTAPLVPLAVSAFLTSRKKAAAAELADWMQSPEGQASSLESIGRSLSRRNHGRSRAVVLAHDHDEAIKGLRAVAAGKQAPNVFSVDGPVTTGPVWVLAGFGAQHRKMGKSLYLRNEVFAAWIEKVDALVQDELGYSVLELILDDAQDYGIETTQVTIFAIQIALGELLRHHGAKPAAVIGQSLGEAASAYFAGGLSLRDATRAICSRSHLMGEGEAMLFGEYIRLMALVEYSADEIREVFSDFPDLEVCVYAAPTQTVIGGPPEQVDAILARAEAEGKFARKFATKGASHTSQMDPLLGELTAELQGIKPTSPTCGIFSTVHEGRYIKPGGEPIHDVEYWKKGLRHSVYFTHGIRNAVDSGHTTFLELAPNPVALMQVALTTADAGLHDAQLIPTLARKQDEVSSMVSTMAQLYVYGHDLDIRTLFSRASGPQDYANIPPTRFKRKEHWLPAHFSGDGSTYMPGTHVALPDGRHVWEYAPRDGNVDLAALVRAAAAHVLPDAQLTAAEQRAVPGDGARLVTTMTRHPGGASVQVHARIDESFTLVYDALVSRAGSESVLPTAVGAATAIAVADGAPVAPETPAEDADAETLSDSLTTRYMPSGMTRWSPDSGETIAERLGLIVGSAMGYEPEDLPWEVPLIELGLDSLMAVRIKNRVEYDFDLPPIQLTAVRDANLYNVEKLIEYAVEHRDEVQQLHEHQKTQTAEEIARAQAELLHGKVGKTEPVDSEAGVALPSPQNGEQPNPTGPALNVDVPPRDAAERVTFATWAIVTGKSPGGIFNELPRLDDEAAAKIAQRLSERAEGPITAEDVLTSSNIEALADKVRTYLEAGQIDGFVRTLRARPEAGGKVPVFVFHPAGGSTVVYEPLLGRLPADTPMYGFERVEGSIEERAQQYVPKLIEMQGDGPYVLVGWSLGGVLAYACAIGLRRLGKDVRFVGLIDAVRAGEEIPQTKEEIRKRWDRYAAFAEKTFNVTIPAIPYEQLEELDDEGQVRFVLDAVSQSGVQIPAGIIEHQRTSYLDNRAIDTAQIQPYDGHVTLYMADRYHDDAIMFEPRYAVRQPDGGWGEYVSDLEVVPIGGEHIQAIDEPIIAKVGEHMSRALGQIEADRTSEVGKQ

Measurements from “University of Dundee, Small-Polar-MMV Screening Library” (2021), ChEMBL document CHEMBL3988442.

Each number is a percent effect as filed. The record does not define 0% and 100%; most values in the screen are far below 50% and negative numbers occur (in some assays of this library far below -100). Compounds were drawn at random from those tested, without regard to their results. A dash means the value is not listed here; it may have been measured.

MtTrpRS: 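Enzyme assay of tryptophanyl-tRNA synthetase; the read-out is not stated. Target: Tryptophan-tRNA ligase, Mycobacterium tuberculosis (UniProt P9WFT3). Tested at 10 µM. Higher most likely means stronger inhibition; the record gives no direction and few retests gave an IC50. Size under these conditions: about 65,000 compounds, about 64 of them at 50% or above in at least one test.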
Toxoplasma: 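Assay of Toxoplasma gondii numbers, read through their beta-galactosidase reporter with a colour substrate. Concentration: 10 µM. Higher reads as fewer parasites (inferred from which compounds were picked for retests). About 67,000 compounds were tested under these conditions; 0.38% (about 260) showed 50% or more at least once.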
ClpP1P2: 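ClpP1P2, Mycobacterium tuberculosis (UniProt P9WPC5 and UniProt P9WPC3). Protease assay of ClpP1P2, read by the AMC dye that it sets free. Concentration: 50 µM. Higher reads as stronger inhibition, judged from the few compounds that gave an IC50. Most other retested compounds had strongly negative values. About 69,000 compounds were tested under these conditions; 0.015% (about 10) showed 50% or more at least once.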
CoaBC: 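Enzyme assay of CoaBC with a phosphate dye (Biomol Green) read at 650 nm. Target: Coenzyme A biosynthesis protein CoaBC, Mycobacterium tuberculosis (UniProt P9WNZ1). Tested at 30 µM. Higher reads as stronger inhibition, judged from the few compounds that gave an IC50. Most strong results did not repeat in a second test. About 67,000 compounds were tested under these conditions; 0.06% (about 40) showed 50% or more at least once.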
Pks13 thioesterase: 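Enzyme assay of the thioesterase domain of polyketide synthase 13; the read-out is not stated. Target: Polyketide synthase Pks13, Mycobacterium tuberculosis (UniProt I6X8D2). Tested at 30 µM. Higher reads as stronger inhibition (inferred from which compounds were picked for retests). Size under these conditions: about 67,000 compounds, about 300 of them at 50% or above in at least one test.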

| Compound | MtTrpRS | Toxoplasma | ClpP1P2 | CoaBC | Pks13 thioesterase |
|---|---|---|---|---|---|
| `Cc1nc(CCNC(=O)Nc2cc(C(F)(F)F)c[nH]c2=O)cs1` | 0.5092% | -26.45% | -29.84% | 4.337% | -26.98% |
| `O=C(Nc1ccccc1)c1cc2n(n1)CCCN(C(=O)c1ccc[nH]1)C2` | 7.082% | 13.78% | 21.38% | 3.774% | -17.93% |
| `Cc1ccc(CCC(=O)N2CCCC(c3cc(C(N)=O)[nH]n3)C2)cc1` (stereo not drawn) | 0.565% | -13.07% | -29.68% | -4.773% | 3.168% |
| `CCNC(=O)N1CCC2(CC1)CCn1c(-c3cccc(OC)c3)cnc12` | 3.198% | -1.968% | 4.997% | - | -41.9% |
| `CSc1ccccc1C(C(=O)O)N(C)CC1CCOCC1` (stereo not drawn) | -2.094% | 3.048% | 1.054% | 3.609% | 4.995% |
| `Cc1cn[nH]c1C1CCCCN1C(=O)CCc1c(C)n[nH]c1C` (stereo not drawn) | - | -9.279% | -17.35% | 1.942% | 4.293% |
| `c1cc(C2CCN(Cc3ccc4c(c3)OCO4)CC2)ccn1` | -3.289% | -9.786% | -5.443% | 6.914% | -16.57% |
| `O=C(O)C(F)(F)F.[H][C@@]12CCN(Cc3cccc(C)n3)[C@@]1([H])CCN2C(=O)c1cc(C)on1` | - | 17.83% | - | - | - |
| `COc1ccc(NC(=O)c2nc(C)sc2C(C)C)cn1` | -0.154% | -1.238% | 1.105% | 8.726% | -3.179% |
| `Cc1n[nH]c(-c2ccc(NC(=O)C(C)N3CCN(C)CC3)cc2)n1` (stereo not drawn) | -1.467% | 1.326% | -7.735% | 1.138% | -3.584% |
| `[H][C@]12CC[C@]([H])(CN(Cc3ccccn3)C1)N(C(=O)c1cc(C3CC3)no1)C2` | - | -5.907% | - | - | - |
| `Cc1ccc(CN2Cc3ccccc3O[C@]3(CC[C@H](CO)CC3)C2)s1` | - | - | 8.333% | 3.632% | 12.08% |
| `COC(=O)NCC(=O)N(C)Cc1csc(C)n1` | 2.434% | -0.1092% | -8.346% | -0.1218% | 12.93% |
| `OC(COc1ccccc1)CN1CCc2c(ncn2C2CC2)C1` (stereo not drawn) | 2.449% | -6.793% | -1.026% | 3.52% | -23.52% |
| `CCc1ocnc1C(=O)Nc1ccc2ccn(CCN(C)C)c2c1` | -0.8256% | -3.196% | 0.5152% | - | -22.74% |
| `CC(NC(=O)NCCNc1cccc(F)c1C#N)c1cccs1` (stereo not drawn) | 1.09% | 12.51% | 4.987% | 2.444% | 3.91% |
| `Cc1ccc(N2C[C@@H]3CN(C(=O)NC4CCCC4)C[C@]3(C(=O)O)C2)nn1` | 0.2467% | - | 4.673% | 0.3681% | - |
| `O=C([C@@H]1CSCN1)N1CCC2(CC1)CNCc1ccccc12` | -3.776% | - | -6.723% | - | -82.14% |
| `COc1ccc(OC)c(CNCc2ccnc(N3CCOCC3)c2)c1` | -7.045% | -5.672% | -3.13% | 2.193% | 8.569% |
| `O=C(Nc1cccnc1)[C@H]1COC[C@H]2CN(C3CCCC3)C[C@H]21` | 1.876% | - | 10.74% | 4.762% | -10.18% |
| `COc1ncnc(N(C)C)c1NC(=O)Cc1cc(F)ccc1F` | -0.4955% | 1.234% | -3.347% | -1.222% | -12.57% |
| `COc1cccc(CCC2CCCN(C(=O)C3=NN(C)C(=O)CC3)C2)c1` (stereo not drawn) | -1.625% | -11.77% | -16.73% | -8.316% | -12.08% |
| `[H][C@]12CC[C@]([H])(CN(C(=O)N(C)C)C1)N(C(=O)CCc1n[nH]c(C)c1C)C2` | - | -10.41% | - | - | - |
| `O=C1CC2(CNCCN(C(=O)Nc3ccccc3)C2)CN1` (stereo not drawn) | -0.7276% | - | -10.38% | 3.562% | -30.16% |
| `CCN1CCN(C(=O)c2cc(-c3cccn3C)n[nH]2)[C@H]2CS(=O)(=O)C[C@H]21` | 4.351% | - | -7.882% | 2.911% | 6.738% |
| `O=C(c1cc2c(F)cccc2[nH]1)N1CCCCC1Cn1cccn1` (stereo not drawn) | -9.604% | -6.837% | -21.43% | 5.455% | -27.09% |
| `[H][C@@]12C[C@@H](c3nc(C)no3)CN(S(=O)(=O)c3ccccc3)[C@]1([H])CCO2` | - | -11.18% | - | - | - |
| `O=C(NCCc1nccs1)C(c1ccccc1)n1cnnn1` (stereo not drawn) | 0% | 10.98% | -6.994% | -21.46% | -8.974% |
| `NC(=O)c1csc(N2CCN(Cc3cccc4nsnc34)CC2)n1` | 6.963% | -1.51% | -3.81% | - | 3.805% |
| `Cc1ncsc1CNC(=O)N1CCN(Cc2ccccc2)CC1C` (stereo not drawn) | -6.727% | -9.813% | 1.657% | -0.4831% | -11.56% |
| `[H][C@@]12CCCO[C@]1([H])[C@H](NC(=O)CC1CC1)CN(Cc1ccc(OC)cc1)C2` | - | 10.08% | - | - | - |
| `O=C(O)C(F)(F)F.O=C(O)C(F)(F)F.[H][C@@]12CCCO[C@]1([H])[C@H](N(C)C)CN2Cc1ccc(C)o1` | - | -0.3723% | - | - | - |

The first 3 entries again:

| Compound | MtTrpRS | Toxoplasma | ClpP1P2 | CoaBC | Pks13 thioesterase |
|---|---|---|---|---|---|
| `Cc1nc(CCNC(=O)Nc2cc(C(F)(F)F)c[nH]c2=O)cs1` | 0.5092% | -26.45% | -29.84% | 4.337% | -26.98% |
| `O=C(Nc1ccccc1)c1cc2n(n1)CCCN(C(=O)c1ccc[nH]1)C2` | 7.082% | 13.78% | 21.38% | 3.774% | -17.93% |
| `Cc1ccc(CCC(=O)N2CCCC(c3cc(C(N)=O)[nH]n3)C2)cc1` (stereo not drawn) | 0.565% | -13.07% | -29.68% | -4.773% | 3.168% |